PubChem BioAssay AID720533 (National Center for Advancing Translational Sciences (NCATS), 2013)
“And” between values parts separate entries of the source, which are not always exact repeats. Equal values may be shown once. Screen size: about 18,000 compounds; about 750 (4.2%) were called active. This list was built around the results that the source calls inconclusive (neither active nor inactive); the mix of calls is not that of the screen. Calls come from the whole dose curve; tested in HEK293 cells. Potencies beside an inconclusive call are fits to weak or partial responses and may not hold up.

test: qHTS for Inhibitors of binding or entry into cells for Lassa Virus; details: Lassa virus pseudotyped entry inhibition, cell-based qHTS; activity change, negative = inhibition: at 49.2 µM (top of the series) unless noted
% is set by controls: 0 for no effect and ±100 for the full control effect; potency is the fitted concentration of half-maximal effect.

Compound	Potency	activity change, negative = inhibition
CC(=O)c1ccc(C(=O)NCc2nc(-c3ccccc3NC(=O)c3cc(C)oc3C)oc2C)cc1	inactive	–
CN(C)CC/C=C1/c2ccccc2COc2ccccc21	inactive	–
O=C(O)c1ccccc1Nc1cccc(OCc2ccc3ccccc3n2)c1	active: 15.8 µM	–
CC(C)(C)NC(=O)[C@@H]1CN(Cc2cccnc2)CCN1C[C@@H](O)C[C@@H](Cc1ccccc1)C(=O)N[C@H]1c2ccccc2C[C@H]1O	inconclusive: 25.1 µM [inhibitor, partial curve]	–
COc1ccc2cc1Oc1ccc(cc1)C[C@H]1c3c(cc4c(c3Oc3cc5c(cc3OC)CCN(C)[C@@H]5C2)OCO4)CCN1C	inconclusive: 25.1 µM [inhibitor, single point] and inconclusive: 3.55 µM [inhibitor, single point]	–
COc1ccc(O)c(CN2CCC3(CC2)c2ccccc2[C@@H](NC(=O)c2cccc(F)c2)[C@@H]3OC)c1	inactive	–
C=CCOc1cc(Cl)ccc1C(=O)NCCN(CC)CC	inconclusive: 28.2 µM [inhibitor, partial curve, poor fit]	–
CN1CCC(N(Cc2cccs2)c2ccccc2)CC1	inconclusive: 28.2 µM [inhibitor, partial curve]	–
COC(=O)[C@H]1C(OC)[C@@H](OC(=O)c2cc(OC)c(OC)c(OC)c2)C[C@@H]2CN3CCc4c([nH]c5cc(OC)ccc45)[C@H]3C[C@H]21 (some centres undefined)	inactive	–
c1ccc2c(c1)OCC(C1=NCCN1)O2 (centres undefined)	inconclusive: 14.1 µM [inhibitor, full curve]	–
COc1c2c(cc3occ(-c4ccc5c(c4)OCO5)c(=O)c13)OC(C)(C)C=C2	inconclusive: 31.6 µM [inhibitor, single point]	–
CC(=O)c1ccc(-c2cccc([C@H]3[C@@H]4C=CC[C@@H](C)[C@@H]4C(=O)N3Cc3ccccc3)c2)cc1	inconclusive: 31.6 µM [inhibitor, partial curve]	–
N#Cc1ccccc1OC[C@H](O)CNCCNC(=O)Nc1ccccc1	inactive	–
O=C(OCC(F)(F)F)[C@H](O)[C@@H](O)C(=O)OCC(F)(F)F	inactive	–
Nc1ccc([N+](=O)[O-])cc1	inconclusive: 22.4 µM [inhibitor, partial curve]	–
CSC[C@H]1CN(c2ccccc2)C(=O)[C@H]1CC(=O)Nc1ccc(Br)cc1	inactive	–
COc1ccccc1CNCCCCCCNCCCCCCCCNCCCCCCNCc1ccccc1OC	inconclusive: 25.1 µM [inhibitor, partial curve]	–
N#CCCCS(=O)(=O)c1nnnn1C1CCCCC1	inactive	–
O=C(C1CCCCC1)N1C[C@H](n2cc(C3CC3)nn2)[C@H](O)C[C@@H]1c1ccc(Cl)cc1	inconclusive: 28.1 µM [inhibitor, single point]	–
CC(C)=CCc1c2c(c(O)c3c(=O)c(O)c(-c4ccccc4)oc13)C=CC(C)(C)O2	inconclusive: 89.1 µM [inhibitor, partial curve]	–

Compound	Potency	activity change, negative = inhibition
Cc1cccc(CNC(=O)c2cnn(-c3nccc(-c4cc5ccccc5o4)n3)c2C2CC2)n1	inconclusive: 35.5 µM [inhibitor, partial curve]	–
COC1=CC(=O)O[C@H](/C=C/c2ccc3c(c2)OCO3)C1	inconclusive: 15.8 µM [inhibitor, partial curve]	–
C#C[C@]1(O)CC[C@H]2[C@H]3CCC4=Cc5oncc5C[C@]4(C)[C@@H]3CC[C@]21C	inconclusive: 35.5 µM [inhibitor, single point]	–
CCCCCC[C@H]1C(=O)O[C@H](C)[C@H](NC(=O)c2cccc(NC=O)c2O)C(=O)O[C@@H](C)[C@@H]1OC(=O)CC(C)C	inconclusive: 1 µM [inhibitor, full curve, poor fit]	–
O=C(O)CNC(=O)C(CS)Cc1ccccc1 (centres undefined)	inactive	–
CC(CCC(=O)OC[C@H]1O[C@H](C#Cc2ccccc2)C=C[C@H]1Oc1ccc(C)cc1)=NOC[C@@H](O)COCc1ccco1	–	inactive: -19.7% [at 8.59 µM]
Cc1ccc(-c2ccc(CN3C(C)C(=O)N(Cc4cn(Cc5ccco5)nn4)CCS3(=O)=O)cc2)cc1 (centres undefined)	inconclusive: 35.3 µM [inhibitor, single point]	–
COc1cc2c(c(OC)c1OC)-c1ccc(OC)c(=O)cc1[C@@H](NC(C)=O)CC2	inconclusive: 0.0891 µM [inhibitor, full curve]	–
CC(C)[C@H](CO)Nc1nc(Nc2cc(N)cc(Cl)c2)c2ncn(C(C)C)c2n1	inconclusive: 7.08 µM [inhibitor, full curve, poor fit]	–
COC(=O)CC=C[C@H](C)[C@@H](NC(=O)C(F)(F)F)c1ccccc1Br	–	inactive: -1.4% [at 8.59 µM]
COc1cc(-c2ccc(Cl)cn2)cc2c1OCCN(C(=O)c1ccccc1-n1cccn1)C2	inactive	–
COc1ccc(CCNc2ncnc3sc(C(=O)N4CCCCC4)c(C)c23)cc1OC	inactive	–
CO/C1=C\C(C)=C\[C@@H](C)[C@@H](O)[C@H](C)C/C(C)=C/C=C/[C@H](OC)[C@H]([C@@H](C)[C@@H](O)[C@H](C)[C@H]2C[C@@H](O)[C@H](C)[C@@H](C(C)C)O2)OC1=O	inconclusive: 0.0178 µM [inhibitor, full curve]	–
CCC1CN(Cc2cn[nH]c2-c2ccccc2)Cc2cc(OC)ccc2O1 (centres undefined)	inactive	–
CC[C@H]1[C@@H]2C=C[C@@H]3[C@H]4C/C=C\C(=O)NCCC[C@@H]5NC(=O)C(=C5O)C(=O)CC[C@@H]4C[C@@H]3[C@H]2C[C@H]1C	active: 12.6 µM and active: 28.2 µM	–
O[C@@H](c1cc(C(F)(F)F)nc2c(C(F)(F)F)cccc12)[C@H]1CCCCN1	active: 28.2 µM	–
O=C1OCCN1C(=O)[C@H]1[C@H](c2ccccc2)C(c2ccc(F)cc2)=NN1c1ccc(Br)cc1	inconclusive: 11.2 µM [inhibitor, single point]	–
COc1cccc([C@@H]2NC(=O)CC=C[C@H](C)[C@H](c3cccc(OC)c3)NC(=O)CC=C[C@H]2C)c1	–	inactive: 5.43% [at 8.59 µM]
CCOC(=O)C1=C(C)NC(C)=C(C(=O)OC)C1c1cccc([N+](=O)[O-])c1 (centres undefined)	inconclusive: 35.5 µM [inhibitor, single point]	–
O=C1C=C2C=C[C@H]3C[C@@]2(O1)[C@H]1CCCCN31	inconclusive: 14.1 µM [inhibitor, single point]	–

An excerpt from above in order of number of heavy atoms, rising.
Compound	Potency	activity change, negative = inhibition
O=C(O)CNC(=O)C(CS)Cc1ccccc1 (centres undefined)	inactive	–
CN(C)CC/C=C1/c2ccccc2COc2ccccc21	inactive	–
COC(=O)CC=C[C@H](C)[C@@H](NC(=O)C(F)(F)F)c1ccccc1Br	–	inactive: -1.4% [at 8.59 µM]
O[C@@H](c1cc(C(F)(F)F)nc2c(C(F)(F)F)cccc12)[C@H]1CCCCN1	active: 28.2 µM	–
CCC1CN(Cc2cn[nH]c2-c2ccccc2)Cc2cc(OC)ccc2O1 (centres undefined)	inactive	–
O=C(O)c1ccccc1Nc1cccc(OCc2ccc3ccccc3n2)c1	active: 15.8 µM	–
COc1cc(-c2ccc(Cl)cn2)cc2c1OCCN(C(=O)c1ccccc1-n1cccn1)C2	inactive	–
CC(=O)c1ccc(C(=O)NCc2nc(-c3ccccc3NC(=O)c3cc(C)oc3C)oc2C)cc1	inactive	–
COc1ccc(O)c(CN2CCC3(CC2)c2ccccc2[C@@H](NC(=O)c2cccc(F)c2)[C@@H]3OC)c1	inactive	–
Cc1ccc(-c2ccc(CN3C(C)C(=O)N(Cc4cn(Cc5ccco5)nn4)CCS3(=O)=O)cc2)cc1 (centres undefined)	inconclusive: 35.3 µM [inhibitor, single point]	–
CCCCCC[C@H]1C(=O)O[C@H](C)[C@H](NC(=O)c2cccc(NC=O)c2O)C(=O)O[C@@H](C)[C@@H]1OC(=O)CC(C)C	inconclusive: 1 µM [inhibitor, full curve, poor fit]	–
COc1ccccc1CNCCCCCCNCCCCCCCCNCCCCCCNCc1ccccc1OC	inconclusive: 25.1 µM [inhibitor, partial curve]	–
COc1ccc2cc1Oc1ccc(cc1)C[C@H]1c3c(cc4c(c3Oc3cc5c(cc3OC)CCN(C)[C@@H]5C2)OCO4)CCN1C	inconclusive: 25.1 µM [inhibitor, single point] and inconclusive: 3.55 µM [inhibitor, single point]	–

Continued.

Compound	Potency	activity change, negative = inhibition
Cc1nc(C)n(CC(=O)NCC2Cc3cc(-c4cccc(OC(F)(F)F)c4)ccc3O2)n1 (centres undefined)	inactive	–
NC(=O)C[C@@H](N)C(=O)O	inactive	–
CC(C)=CCc1c(O)cc2occ(-c3ccc4c(c3)OCO4)c(=O)c2c1O	inconclusive: 31.6 µM [inhibitor, single point]	–
Cc1cc(CC(C)CC(C)(C)C)n(O)c(=O)c1 (centres undefined) (tested in a mixture with another compound)	inconclusive: 15.8 µM [inhibitor, full curve]	–
OC1(c2cccnc2)CCN(Cc2ccc3c(c2)CN(Cc2cc4ccccc4s2)CCO3)CC1	inconclusive: 35.5 µM [inhibitor, single point]	–
COc1ccc(CNc2nc(-c3ccccc3CN(C)C)nc3ccccc23)c(OC)c1	inconclusive: 28.2 µM [inhibitor, single point]	–
C/C=C(\C)C(=O)OC1CC(OC(C)=O)[C@@]2(C(=O)OC)COC3C2[C@@]12CO[C@](O)(C(=O)OC)C2[C@](C)(C12OC1(C)C1CC2OC2OC=C[C@]21O)C3O (some centres undefined)	inactive	–
COc1ccc(-c2cccc(-c3cc(=O)oc4cc(OC)c(OC)c(OC)c34)c2)cc1	inconclusive: 12.6 µM [inhibitor, partial curve]	–
CCC1OC(=O)C(C)[C@@H](O[C@H]2C[C@@](C)(OC)C(O)C(C)O2)C(C)[C@@H](O[C@@H]2OC(C)CC(N(C)C)C2O)[C@@](C)(O)CC(C)CN(C)C(C)C(O)[C@]1(C)O (some centres undefined)	inconclusive: 22.4 µM [inhibitor, partial curve]	–
COc1ccc(CCCOC(Cn2ccnc2)c2ccc(OC)cc2)cc1 (centres undefined)	inconclusive: 3.16 µM [inhibitor, full curve, poor fit]	–
COc1ccccc1OCCNCC(O)COc1cccc2[nH]c3ccccc3c12 (centres undefined)	inconclusive: 25.1 µM [inhibitor, single point]	–
CCn1c(-c2ccccc2F)nc2cc(NC(C)=O)cc(C(=O)NCC3CCOCC3)c21	inactive	–
O=C(NCC1CCCCN1)c1cc(OCC(F)(F)F)ccc1OCC(F)(F)F (centres undefined)	inconclusive: 35.5 µM [inhibitor, single point]	–
CN[C@@H]1[C@@H](O)[C@@H](O[C@@H]2[C@H](O)[C@H](O[C@H]3OC(CN)=CC[C@H]3N)[C@@H](N)C[C@H]2N)OCC1(C)O (some centres undefined)	inactive	–
S=P(N1CC1)(N1CC1)N1CC1	inconclusive: 35.5 µM [inhibitor, single point] and inconclusive: 25.1 µM [inhibitor, full curve] and inconclusive: 15.8 µM [inhibitor, single point]	–
COC(=O)C1CCN(Cc2ccc3c(c2)CN(C(=O)c2ccc4nc(C)c(C)nc4c2)CCO3)CC1	inactive	–
Cc1ccc2c(-c3ccnc(Nc4ccccc4)n3)c(-c3ccc(F)cc3)nn2n1	inconclusive: 25 µM [inhibitor, partial curve, poor fit]	–
